Binding signal data for 42 sequences are collected here from paper PMC7819943, “Rice protein-binding microarrays: a tool to detect cis-acting elements near promoter regions in rice”.

Some of the results follow.

The target of the assay is T1, OsSMF1 (Oryza sativa, UniProt Q6ZLB0 1-436).
T1 sequence: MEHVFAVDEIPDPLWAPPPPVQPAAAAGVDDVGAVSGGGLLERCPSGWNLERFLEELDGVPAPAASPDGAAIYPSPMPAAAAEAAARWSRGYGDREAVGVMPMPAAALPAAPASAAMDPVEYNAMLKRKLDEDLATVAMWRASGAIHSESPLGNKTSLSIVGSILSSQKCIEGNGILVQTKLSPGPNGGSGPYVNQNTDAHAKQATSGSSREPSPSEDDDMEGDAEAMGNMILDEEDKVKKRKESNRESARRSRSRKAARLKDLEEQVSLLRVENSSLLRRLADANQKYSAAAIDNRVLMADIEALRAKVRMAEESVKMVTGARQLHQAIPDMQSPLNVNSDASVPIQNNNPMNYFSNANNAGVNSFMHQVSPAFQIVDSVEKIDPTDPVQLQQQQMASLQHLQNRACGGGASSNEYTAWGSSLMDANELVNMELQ
In words: protein-binding microarray (RPBM); PBS, 2% BSA, 51.3 ng/ul salmon testes DNA, 50 uM zinc acetate, 200 nM TF, 25 C, 1 h; high values mean tight binding. The following applies: protein: recombinant; tags: N-terminal polyhistidine and DsRed monomer fusion (pET32a); chain copies: 2; label: CyDye5-dUTP incorporated in the synthesized complementary strand; 3' TTTTT single-stranded linker to array surface; dsDNA, one strand shown. The procedure, abridged: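 The binding signal for each feature is its fluorescence intensity in arbitrary units. An Axon 4000B scanner was used to read a custom Agilent array that had been made double-stranded with Cy5-dUTP primer extension, blocked with 2% BSA, incubated at 25 °C for 1 h with 200 nM protein in PBS, 2% BSA, salmon testes DNA and 50 µM zinc acetate, and washed. The protein was an N-terminal polyhistidine–DsRed transcription factor fusion from E. coli BL21-CodonPlus, purified on Ni–NTA.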
With “CTCCAATTTCCCAACTCCCCAATCTGTCACCTCGCAGCTTCGGAGTCACCTAGTGCAG”, the binding signal was 3540 fluorescence intensity (a.u.).
The same measure for “TGAATGACTAACAACTACATGATGTGGGTGACTGCTATATCGGAGTCACCTAGTGCAG”: 4370 fluorescence intensity (a.u.); for “GGCAACAATGCTGTCATTTAATTATGTACCTGTCATTTATCGGAGTCACCTAGTGCAG”: 23700 fluorescence intensity (a.u.).
The same measure for “CATCGGGCCCTCCTCCGCAACGTAAGCCATCCACGCACCACGGAGTCACCTAGTGCAG”: 3290 fluorescence intensity (a.u.); for “CGGTTGGTGGACTAAACCTGGAATGACAAACCTCCAGGGACGGAGTCACCTAGTGCAG”: 3250 fluorescence intensity (a.u.).
The same measure for “CCGACGACGTCACCTCCTCCTCCGCGACCGCCATGTCGTCCGGAGTCACCTAGTGCAG”: 4760 fluorescence intensity (a.u.); for “GCATCTTCCATAAAGGATTATGATGTGTCTCATCTAATTCCGGAGTCACCTAGTGCAG”: 3350 fluorescence intensity (a.u.); for “TAATTACATAGCTTAGCTTTTAGATGTCCGTGGCAAATTTCGGAGTCACCTAGTGCAG”: 3480 fluorescence intensity (a.u.).
As to “CGACAGAGTTGGCTCGACGATGGAGCAGAGGTTCAAGGTCCGGAGTCACCTAGTGCAG”, the binding signal is 3420 fluorescence intensity (a.u.).
Take “GAACCAAATGAAATGAGAACAAATTTAGTAAGTATTGGTGCGGAGTCACCTAGTGCAG”: the binding signal is 19500 fluorescence intensity (a.u.).
To “ATAACGTTGATTTGGGCAACAAATTAAATAGGCACAGTAACGGAGTCACCTAGTGCAG” belongs 3260 fluorescence intensity (a.u.).
Regarding “CGCCACGTTCCTCCTGACCCATGCCACGCGCCGCCGTGCCCGGAGTCACCTAGTGCAG”, the binding signal is 3750 fluorescence intensity (a.u.).
The same measure for “TGTGAATTACTAGTAGTACGTAAGCATAAATACGCCACCCCGGAGTCACCTAGTGCAG”: 3550 fluorescence intensity (a.u.); for “GTGCAGTGAGTGGTGGCAGTGCAGTGCTCCAGTCATTTCCCGGAGTCACCTAGTGCAG”: 4050 fluorescence intensity (a.u.); for “TACATTCACGGAATACGCTGGCGTGTAGTCGTACACGTACCGGAGTCACCTAGTGCAG”: 5250 fluorescence intensity (a.u.).
The same measure for “GCTCCCGGGAGCTCTGCGCATGGCGCGCCACGTCACCCACCGGAGTCACCTAGTGCAG”: 30100 fluorescence intensity (a.u.); for “GACATTTACATGTACTGATTGCTGATTGCCATTGATTCATCGGAGTCACCTAGTGCAG”: 22800 fluorescence intensity (a.u.); for “GACCGGTGGGGCTTCCTCTCGTTGGCAGCCTCCCATTCATCGGAGTCACCTAGTGCAG”: 4730 fluorescence intensity (a.u.).
The same measure for “TCACTTTCGCTGAGGTGGAACAATGGCGTGGCAACTTTTGCGGAGTCACCTAGTGCAG”: 12000 fluorescence intensity (a.u.); for “GCAGAAGAACACCCATAGGCCGCTCGTGACTGAGGCGCCGCGGAGTCACCTAGTGCAG”: 3770 fluorescence intensity (a.u.).
For “GTGTGCTTAACATCATTGCCACGCCTGAAATACTTTCACCCGGAGTCACCTAGTGCAG”, the binding signal was 6060 fluorescence intensity (a.u.).
To “CTTAAATCCAGTACGGTTATCAGCATGCCCACGTCCACGTCGGAGTCACCTAGTGCAG” belongs 3290 fluorescence intensity (a.u.); to “TCGAGTAAGGTGAACTTATTCCTCATCGAATTGGTGTTACCGGAGTCACCTAGTGCAG”, 3490 fluorescence intensity (a.u.); to “CCGGCATTGCCATCAGATGACGTCATGGTTCAGCAATTTCCGGAGTCACCTAGTGCAG”, 6810 fluorescence intensity (a.u.).
For “GCCCCGACACCCGGCGTTCCACGTCCGGCTTTTGCATCTTCGGAGTCACCTAGTGCAG”, the binding signal is 3930 fluorescence intensity (a.u.).
For the sequence “GGCATCAGCTCAGCTAGCTAGCCACGATAGCAATGGGGCGCGGAGTCACCTAGTGCAG”, the binding signal is 3300 fluorescence intensity (a.u.).
In the case of “GTAGCGAGTTCAATGTGACACGACGTGTCGGTGACACCAACGGAGTCACCTAGTGCAG”, the binding signal is 6270 fluorescence intensity (a.u.).
The same measure for “TTTATGATGTTGTCAGCTACAGTGGAATTGTGCTTACAACCGGAGTCACCTAGTGCAG”: 3210 fluorescence intensity (a.u.).
The same measure for “TCCGTCGTTCCGTGTTGGCCCACGCTGCCGCCGCGCGCCGCGGAGTCACCTAGTGCAG”: 3440 fluorescence intensity (a.u.); for “AATGTGGGAGAAGGGGAGGAGAGAGGGGAGGGGAGGGGACCGGAGTCACCTAGTGCAG”: 6010 fluorescence intensity (a.u.).
Regarding “GTGACATCCTTGCAATCCCACTGCCAGGTAAACAAACTCTCGGAGTCACCTAGTGCAG”, the binding signal was 3260 fluorescence intensity (a.u.).
The same measure for “GCGGCGCGCGGTTGGGGAGGGGCGGGGACGCGTGAGAGCGCGGAGTCACCTAGTGCAG”: 6160 fluorescence intensity (a.u.); for “GGTATTTTACTACCTTGGGGAGCTAAACGATGCACTGTCCCGGAGTCACCTAGTGCAG”: 24300 fluorescence intensity (a.u.); for “TCGTCGTCGGTGCGGCGCCGCCAGGGAAAATGGAGTCATCCGGAGTCACCTAGTGCAG”: 4060 fluorescence intensity (a.u.).
The same measure for “CCTCCCTCCCGTGTGGTAGCCATGACAAGGCGGATGCGATCGGAGTCACCTAGTGCAG”: 4600 fluorescence intensity (a.u.); for “TAAAAGAATACCACCACCACCTGGCCGGGCCCACTTCCAGCGGAGTCACCTAGTGCAG”: 26000 fluorescence intensity (a.u.).
Take “AGCTCGTGTCGGCCCGTACACGTCATCCCCGGGCCCACCCCGGAGTCACCTAGTGCAG”: the binding signal was 21800 fluorescence intensity (a.u.).
The same measure for “ACCAAGGAACATTGTTTGCACCAGTTTTGATGGTTGGAGGCGGAGTCACCTAGTGCAG”: 4250 fluorescence intensity (a.u.); for “TCTCCACTCCCAGTGGCACCTCGCTGCCTAGCGCGACGTACGGAGTCACCTAGTGCAG”: 3260 fluorescence intensity (a.u.).
The same measure for “GATCCAAAATGGGTGAGCCCAGTGGAGCCCCATTCGGCCACGGAGTCACCTAGTGCAG”: 5590 fluorescence intensity (a.u.); for “GGCTCTTCTGTTGTACACCGATTTATTTATTTGATGCATGCGGAGTCACCTAGTGCAG”: 3390 fluorescence intensity (a.u.).
The same measure for “AGCCCGATTTTCTGTTCATTTCCACGTTTGATTTGGTGCACGGAGTCACCTAGTGCAG”: 3970 fluorescence intensity (a.u.).
